The target in one assay is T1, FLAG-hnRNP F (UniProt P52597).
T1 sequence: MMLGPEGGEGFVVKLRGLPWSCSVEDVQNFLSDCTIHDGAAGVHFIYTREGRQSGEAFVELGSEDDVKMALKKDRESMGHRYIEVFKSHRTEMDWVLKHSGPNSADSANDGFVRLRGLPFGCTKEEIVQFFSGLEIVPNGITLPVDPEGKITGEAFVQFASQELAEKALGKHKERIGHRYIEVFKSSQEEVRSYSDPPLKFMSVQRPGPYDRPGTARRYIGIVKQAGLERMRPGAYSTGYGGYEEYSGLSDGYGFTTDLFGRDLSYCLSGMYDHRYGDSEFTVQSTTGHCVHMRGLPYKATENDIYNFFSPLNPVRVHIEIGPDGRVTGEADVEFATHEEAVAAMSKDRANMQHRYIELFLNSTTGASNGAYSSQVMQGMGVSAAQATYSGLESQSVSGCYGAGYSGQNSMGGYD
In words: affinity purification with mass spectrometry; FLAG-hnRNP F or H1 ectopically expressed in HeLa cells, immunoprecipitated by FLAG antibody; immunoprecipitates separated by SDS-PAGE, silver-stained, bands analysed by mass spectrometry.

Protein sequences, listed by entry. Tags and fused reporters are not part of them.
UniProt P31943: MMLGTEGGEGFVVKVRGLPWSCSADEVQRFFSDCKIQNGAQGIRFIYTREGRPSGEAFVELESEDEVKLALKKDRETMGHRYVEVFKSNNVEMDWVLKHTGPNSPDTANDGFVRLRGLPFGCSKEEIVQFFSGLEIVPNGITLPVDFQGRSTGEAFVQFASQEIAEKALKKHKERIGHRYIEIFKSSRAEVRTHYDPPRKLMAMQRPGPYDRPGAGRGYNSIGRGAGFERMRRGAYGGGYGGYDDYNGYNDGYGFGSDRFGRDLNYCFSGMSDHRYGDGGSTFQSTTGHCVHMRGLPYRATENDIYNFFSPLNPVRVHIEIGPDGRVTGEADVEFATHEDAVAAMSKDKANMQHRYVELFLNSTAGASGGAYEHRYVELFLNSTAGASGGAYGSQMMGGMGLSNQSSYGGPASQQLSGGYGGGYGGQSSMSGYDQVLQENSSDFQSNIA
UniProt Q86US8: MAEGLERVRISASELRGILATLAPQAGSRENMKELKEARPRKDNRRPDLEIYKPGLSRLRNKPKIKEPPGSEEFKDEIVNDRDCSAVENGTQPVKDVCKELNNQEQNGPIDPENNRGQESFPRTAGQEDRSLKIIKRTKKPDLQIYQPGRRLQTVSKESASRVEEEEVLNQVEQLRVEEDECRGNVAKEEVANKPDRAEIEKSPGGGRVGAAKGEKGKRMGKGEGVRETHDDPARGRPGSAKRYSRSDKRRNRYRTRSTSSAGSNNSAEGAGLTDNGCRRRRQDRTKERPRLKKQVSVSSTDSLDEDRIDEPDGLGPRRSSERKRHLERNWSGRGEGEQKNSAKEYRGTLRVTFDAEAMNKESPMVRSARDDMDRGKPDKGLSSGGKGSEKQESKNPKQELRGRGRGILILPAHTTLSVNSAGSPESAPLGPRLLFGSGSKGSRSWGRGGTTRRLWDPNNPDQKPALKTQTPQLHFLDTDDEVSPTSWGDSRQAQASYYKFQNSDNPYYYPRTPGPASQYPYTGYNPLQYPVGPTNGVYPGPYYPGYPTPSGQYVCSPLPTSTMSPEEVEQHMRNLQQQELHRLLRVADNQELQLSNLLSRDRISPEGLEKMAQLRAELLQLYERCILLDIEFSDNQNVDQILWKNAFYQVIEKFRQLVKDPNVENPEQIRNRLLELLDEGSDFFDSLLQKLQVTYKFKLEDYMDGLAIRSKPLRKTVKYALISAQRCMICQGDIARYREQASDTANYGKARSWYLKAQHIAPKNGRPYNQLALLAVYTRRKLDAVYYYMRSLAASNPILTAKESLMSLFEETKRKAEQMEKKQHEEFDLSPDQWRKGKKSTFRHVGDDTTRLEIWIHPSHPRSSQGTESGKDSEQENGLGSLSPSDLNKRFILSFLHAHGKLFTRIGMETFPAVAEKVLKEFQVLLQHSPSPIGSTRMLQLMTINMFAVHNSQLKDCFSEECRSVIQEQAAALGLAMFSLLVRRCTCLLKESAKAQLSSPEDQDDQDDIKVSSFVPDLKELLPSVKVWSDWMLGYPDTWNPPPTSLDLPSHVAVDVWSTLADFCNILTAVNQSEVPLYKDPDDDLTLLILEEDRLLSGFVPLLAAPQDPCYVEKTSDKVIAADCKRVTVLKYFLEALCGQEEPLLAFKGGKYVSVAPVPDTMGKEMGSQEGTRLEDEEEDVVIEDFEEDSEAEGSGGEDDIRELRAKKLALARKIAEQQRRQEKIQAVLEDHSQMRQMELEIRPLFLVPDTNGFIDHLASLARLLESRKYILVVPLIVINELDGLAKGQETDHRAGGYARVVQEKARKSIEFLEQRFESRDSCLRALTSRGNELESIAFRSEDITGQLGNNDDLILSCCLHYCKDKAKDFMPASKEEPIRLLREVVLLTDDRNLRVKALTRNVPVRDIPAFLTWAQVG

Another assay addresses FLAG-hnRNP H1 (UniProt P31943). The assay is described as above.

Results are given in words; binding and its absence hold for the method and conditions named. In cells and extracts the contact can be indirect. These calls come from enrichment with a bait or labelling near it, and not all partners need be listed. For some assays here: Sequences can lack the tags named with a protein.

Consider EST1A (from UniProt Q86US8 1-1419), for which the binding entry with FLAG-hnRNP F is “binds”.

B1: DKC1 (protein, UniProt O60832 1-514)
chain: MADAEVIILPKKHKKKKERKSLPEEDVAEIQHAEEFLIKPESKVAKLDTSQWPLLLKNFDKLNVRTTHYTPLACGSNPLKREIGDYIRTGFINLDKPSNPSSHEVVAWIRRILRVEKTGHSGTLDPKVTGCLIVCIERATRLVKSQQSAGKEYVGIVRLHNAIEGGTQLSRALETLTGALFQRPPLIAAVKRQLRVRTIYESKMIEYDPERRLGIFWVSCEAGTYIRTLCVHLGLLLGVGGQMQELRRVRSGVMSEKDHMVTMHDVLDAQWLYDNHKDESYLRRVVYPLEKLLTSHKRLVMKDSAVNAICYGAKIMLPGVLRYEDGIEVNQEIVVITTKGEAICMAIALMTTAVISTCDHGIVAKIKRVIMERDTYPRKWGLGPKASQKKLMIKQGLLDKHGKPTDSTPATWKQEYVDYSESAKKEVVAEVVKAPQVVAEAAKTAKRKRESESESDETPPAAPQLIKKEKKKSKKDKKAKAGLESGAEPGDGDSDTTKKKKKKKKAKEVELVSE
For the molecule B1, the binding entry with FLAG-hnRNP F and with FLAG-hnRNP H1 was “binds” each time.

B2: NHP2 (protein, UniProt Q9NX24 1-153)
chain: MTKIKADPDGPEAQAEACSGERTYQELLVNQNPIAQPLASRRLTRKLYKCIKKAVKQKQIRRGVKEVQKFVNKGEKGIMVLAGDTLPIEVYCHLPVMCEDRNLPYVYIPSKTDLGAAAGSKRPTCVIMVKPHEEYQEAYDECLEEVQSLPLPL
Turning to B2, the binding result with FLAG-hnRNP F and with FLAG-hnRNP H1 was “binds” throughout.

B3: GAR1 (protein, UniProt Q9NY12 1-217)
chain: MSFRGGGRGGFNRGGGGGGFNRGGSSNHFRGGGGGGGGGNFRGGGRGGFGRGGGRGGFNKGQDQGPPERVVLLGEFLHPCEDDIVCKCTTDENKVPYFNAPVYLENKEQIGKVDEIFGQLRDFYFSVKLSENMKASSFKKLQKFYIDPYKLLPLQRFLPRPPGEKGPPRGGGRGGRGGGRGGGGRGGGRGGGFRGGRGGGGGGFRGGRGGGFRGRGH
On to B3, for which, in the assay with FLAG-hnRNP F, the binding entry is on record as “binds”.

B4: NOP10 (protein, UniProt Q9NPE3 1-64)
chain: MFLQYYLNEQGDRVYTLKKFDPMGQQTCSAHPARFSPDDKYSRHRITIKKRFKVLMTQQPRPVL
B4: the binding entry in the assay with FLAG-hnRNP F and with FLAG-hnRNP H1 was “binds” in each case.

These data come from article PMC7244589.
